From the supplement of paper PMC10849652
The list shows a part of the results.

Protein sequences, listed by entry. Tags and fused reporters are not part of them. Lines headed by an entry give the natural chain unless they say otherwise; changes in a name come on top.
UniProt P60891: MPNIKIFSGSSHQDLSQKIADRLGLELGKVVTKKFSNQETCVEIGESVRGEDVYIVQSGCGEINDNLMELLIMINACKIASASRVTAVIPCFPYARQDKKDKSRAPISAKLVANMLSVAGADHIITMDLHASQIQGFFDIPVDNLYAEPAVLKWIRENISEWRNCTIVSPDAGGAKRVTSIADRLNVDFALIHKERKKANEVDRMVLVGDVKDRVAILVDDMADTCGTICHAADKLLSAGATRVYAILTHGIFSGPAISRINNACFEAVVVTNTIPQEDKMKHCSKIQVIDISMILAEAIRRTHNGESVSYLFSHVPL
UniProt Q15435: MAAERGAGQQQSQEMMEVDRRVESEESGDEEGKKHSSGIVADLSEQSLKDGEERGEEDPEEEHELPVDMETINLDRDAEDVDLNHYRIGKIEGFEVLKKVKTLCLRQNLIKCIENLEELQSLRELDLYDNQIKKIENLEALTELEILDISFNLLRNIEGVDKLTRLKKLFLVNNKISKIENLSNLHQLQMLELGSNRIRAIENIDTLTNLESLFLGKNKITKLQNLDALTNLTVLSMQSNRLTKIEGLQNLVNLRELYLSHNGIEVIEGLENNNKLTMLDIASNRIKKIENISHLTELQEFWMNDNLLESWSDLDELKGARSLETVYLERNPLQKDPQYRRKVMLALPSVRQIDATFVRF
UniProt P30153, whole entry, looked up: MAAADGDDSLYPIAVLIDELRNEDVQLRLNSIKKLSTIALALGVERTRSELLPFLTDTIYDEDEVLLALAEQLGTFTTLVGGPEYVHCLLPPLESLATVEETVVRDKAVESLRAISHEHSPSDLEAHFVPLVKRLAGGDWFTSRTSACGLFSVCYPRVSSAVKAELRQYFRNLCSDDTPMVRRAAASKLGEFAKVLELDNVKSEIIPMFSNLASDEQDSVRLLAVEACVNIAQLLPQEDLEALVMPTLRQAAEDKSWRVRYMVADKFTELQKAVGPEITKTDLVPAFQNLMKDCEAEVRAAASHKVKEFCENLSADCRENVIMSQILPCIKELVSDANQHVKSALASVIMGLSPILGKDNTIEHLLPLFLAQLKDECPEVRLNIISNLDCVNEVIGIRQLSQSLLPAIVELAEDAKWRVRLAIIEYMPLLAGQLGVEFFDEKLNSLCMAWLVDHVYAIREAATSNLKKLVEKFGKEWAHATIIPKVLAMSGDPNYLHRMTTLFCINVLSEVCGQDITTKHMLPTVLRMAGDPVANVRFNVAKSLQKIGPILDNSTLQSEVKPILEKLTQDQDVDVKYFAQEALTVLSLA
UniProt P63098, whole entry, looked up: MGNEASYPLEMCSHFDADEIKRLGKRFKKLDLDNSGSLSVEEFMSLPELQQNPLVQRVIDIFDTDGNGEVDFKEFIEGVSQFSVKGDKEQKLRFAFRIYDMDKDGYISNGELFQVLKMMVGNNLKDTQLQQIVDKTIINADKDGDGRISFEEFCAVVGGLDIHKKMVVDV
UniProt P30044: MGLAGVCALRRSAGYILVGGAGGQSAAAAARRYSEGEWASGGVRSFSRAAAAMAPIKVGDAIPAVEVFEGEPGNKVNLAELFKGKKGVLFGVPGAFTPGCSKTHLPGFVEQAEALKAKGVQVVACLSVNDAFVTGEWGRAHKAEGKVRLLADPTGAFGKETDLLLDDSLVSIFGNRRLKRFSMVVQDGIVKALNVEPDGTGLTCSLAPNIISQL
UniProt Q14558: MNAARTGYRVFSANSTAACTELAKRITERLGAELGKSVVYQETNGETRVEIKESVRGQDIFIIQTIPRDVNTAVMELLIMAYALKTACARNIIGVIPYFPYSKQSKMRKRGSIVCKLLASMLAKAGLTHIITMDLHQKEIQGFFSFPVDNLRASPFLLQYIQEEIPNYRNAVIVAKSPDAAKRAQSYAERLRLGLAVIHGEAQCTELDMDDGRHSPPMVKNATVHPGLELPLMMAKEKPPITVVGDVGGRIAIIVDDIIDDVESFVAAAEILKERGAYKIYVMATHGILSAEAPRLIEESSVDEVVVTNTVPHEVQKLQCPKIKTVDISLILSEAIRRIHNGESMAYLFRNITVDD
UniProt Q06830: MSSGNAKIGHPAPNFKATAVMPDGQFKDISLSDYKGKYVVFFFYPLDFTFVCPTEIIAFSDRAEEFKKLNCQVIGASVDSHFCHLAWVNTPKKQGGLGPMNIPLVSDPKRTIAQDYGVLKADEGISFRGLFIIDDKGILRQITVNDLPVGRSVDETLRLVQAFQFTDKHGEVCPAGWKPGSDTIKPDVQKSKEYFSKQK
UniProt P14314: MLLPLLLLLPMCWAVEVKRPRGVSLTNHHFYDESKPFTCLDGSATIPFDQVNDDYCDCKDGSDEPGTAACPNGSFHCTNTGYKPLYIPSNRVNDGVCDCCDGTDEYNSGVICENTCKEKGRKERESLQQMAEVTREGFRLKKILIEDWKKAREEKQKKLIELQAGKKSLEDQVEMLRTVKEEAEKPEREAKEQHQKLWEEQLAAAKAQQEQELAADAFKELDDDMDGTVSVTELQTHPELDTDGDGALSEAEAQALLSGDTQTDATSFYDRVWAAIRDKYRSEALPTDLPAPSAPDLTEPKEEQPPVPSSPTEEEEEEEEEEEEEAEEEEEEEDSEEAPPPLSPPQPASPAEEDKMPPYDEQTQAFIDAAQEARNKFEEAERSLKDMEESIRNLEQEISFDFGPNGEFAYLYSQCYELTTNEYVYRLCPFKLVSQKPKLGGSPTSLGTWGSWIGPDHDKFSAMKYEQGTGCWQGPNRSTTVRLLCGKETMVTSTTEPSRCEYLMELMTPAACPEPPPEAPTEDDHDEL
UniProt Q8TF05: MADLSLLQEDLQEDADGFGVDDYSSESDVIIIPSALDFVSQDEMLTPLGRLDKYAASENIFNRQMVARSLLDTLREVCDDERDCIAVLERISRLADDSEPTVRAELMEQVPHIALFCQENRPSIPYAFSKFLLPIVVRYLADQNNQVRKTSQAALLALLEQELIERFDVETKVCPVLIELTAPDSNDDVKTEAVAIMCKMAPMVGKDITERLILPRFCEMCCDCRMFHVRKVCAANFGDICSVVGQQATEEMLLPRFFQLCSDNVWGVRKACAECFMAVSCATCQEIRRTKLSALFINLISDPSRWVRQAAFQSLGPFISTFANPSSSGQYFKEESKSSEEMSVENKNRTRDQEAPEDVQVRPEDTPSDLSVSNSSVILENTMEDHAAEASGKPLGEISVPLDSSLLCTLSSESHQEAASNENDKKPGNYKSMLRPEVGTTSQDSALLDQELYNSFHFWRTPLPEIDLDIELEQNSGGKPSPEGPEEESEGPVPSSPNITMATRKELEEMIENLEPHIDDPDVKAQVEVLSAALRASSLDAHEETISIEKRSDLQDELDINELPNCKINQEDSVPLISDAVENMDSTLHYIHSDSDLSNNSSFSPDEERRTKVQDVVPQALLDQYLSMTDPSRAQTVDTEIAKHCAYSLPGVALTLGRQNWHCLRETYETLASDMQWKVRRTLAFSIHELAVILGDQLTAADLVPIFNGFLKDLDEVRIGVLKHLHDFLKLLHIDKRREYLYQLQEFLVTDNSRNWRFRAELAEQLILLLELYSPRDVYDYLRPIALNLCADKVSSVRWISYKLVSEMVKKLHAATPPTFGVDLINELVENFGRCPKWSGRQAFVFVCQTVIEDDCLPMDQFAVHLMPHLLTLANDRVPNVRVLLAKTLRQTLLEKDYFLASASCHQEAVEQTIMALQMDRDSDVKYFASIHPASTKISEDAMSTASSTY
UniProt P32119: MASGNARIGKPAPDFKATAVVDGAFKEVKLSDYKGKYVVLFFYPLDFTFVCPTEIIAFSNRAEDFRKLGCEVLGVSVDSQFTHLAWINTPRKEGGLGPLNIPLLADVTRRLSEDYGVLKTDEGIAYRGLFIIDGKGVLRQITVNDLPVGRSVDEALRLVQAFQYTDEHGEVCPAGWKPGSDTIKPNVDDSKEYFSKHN
UniProt Q8TAE6: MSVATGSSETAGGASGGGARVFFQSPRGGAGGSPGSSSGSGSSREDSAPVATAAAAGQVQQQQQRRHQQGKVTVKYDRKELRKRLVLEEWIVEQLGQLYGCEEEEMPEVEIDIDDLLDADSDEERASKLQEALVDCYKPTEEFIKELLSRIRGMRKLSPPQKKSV
UniProt Q6P2P2: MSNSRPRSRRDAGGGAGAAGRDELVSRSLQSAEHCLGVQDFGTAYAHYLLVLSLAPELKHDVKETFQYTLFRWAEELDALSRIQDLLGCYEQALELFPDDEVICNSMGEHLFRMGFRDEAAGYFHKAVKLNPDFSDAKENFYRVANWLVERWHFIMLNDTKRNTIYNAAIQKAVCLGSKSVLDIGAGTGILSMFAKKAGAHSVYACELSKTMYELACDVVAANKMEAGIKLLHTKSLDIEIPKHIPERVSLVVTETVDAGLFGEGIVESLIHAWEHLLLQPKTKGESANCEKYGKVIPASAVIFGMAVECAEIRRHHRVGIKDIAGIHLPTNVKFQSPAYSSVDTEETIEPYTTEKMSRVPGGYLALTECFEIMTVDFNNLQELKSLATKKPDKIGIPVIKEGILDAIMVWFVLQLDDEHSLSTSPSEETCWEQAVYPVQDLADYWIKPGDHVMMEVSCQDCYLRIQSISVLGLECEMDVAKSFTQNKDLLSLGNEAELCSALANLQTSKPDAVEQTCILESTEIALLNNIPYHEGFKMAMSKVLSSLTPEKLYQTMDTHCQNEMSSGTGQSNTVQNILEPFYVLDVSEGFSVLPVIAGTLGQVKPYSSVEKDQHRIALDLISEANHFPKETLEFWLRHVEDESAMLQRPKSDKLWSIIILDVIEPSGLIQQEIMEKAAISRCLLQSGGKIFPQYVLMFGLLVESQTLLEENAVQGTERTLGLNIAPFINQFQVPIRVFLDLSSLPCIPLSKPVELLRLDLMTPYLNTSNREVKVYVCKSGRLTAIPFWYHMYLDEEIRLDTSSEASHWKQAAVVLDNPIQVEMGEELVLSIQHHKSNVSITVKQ
UniProt P62140, whole entry, looked up: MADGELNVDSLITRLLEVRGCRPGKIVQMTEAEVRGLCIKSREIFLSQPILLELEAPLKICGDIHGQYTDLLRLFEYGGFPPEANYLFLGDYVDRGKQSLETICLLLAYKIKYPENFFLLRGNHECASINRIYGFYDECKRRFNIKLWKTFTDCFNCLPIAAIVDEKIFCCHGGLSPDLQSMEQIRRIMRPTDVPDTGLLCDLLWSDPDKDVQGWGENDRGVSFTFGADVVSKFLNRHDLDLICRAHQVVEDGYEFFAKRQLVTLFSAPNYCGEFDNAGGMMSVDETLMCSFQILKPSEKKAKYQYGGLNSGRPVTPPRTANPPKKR
UniProt O60927: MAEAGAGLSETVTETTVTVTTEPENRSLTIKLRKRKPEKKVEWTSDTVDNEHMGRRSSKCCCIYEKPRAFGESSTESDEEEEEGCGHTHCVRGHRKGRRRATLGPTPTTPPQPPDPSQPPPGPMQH
UniProt Q5H9R7: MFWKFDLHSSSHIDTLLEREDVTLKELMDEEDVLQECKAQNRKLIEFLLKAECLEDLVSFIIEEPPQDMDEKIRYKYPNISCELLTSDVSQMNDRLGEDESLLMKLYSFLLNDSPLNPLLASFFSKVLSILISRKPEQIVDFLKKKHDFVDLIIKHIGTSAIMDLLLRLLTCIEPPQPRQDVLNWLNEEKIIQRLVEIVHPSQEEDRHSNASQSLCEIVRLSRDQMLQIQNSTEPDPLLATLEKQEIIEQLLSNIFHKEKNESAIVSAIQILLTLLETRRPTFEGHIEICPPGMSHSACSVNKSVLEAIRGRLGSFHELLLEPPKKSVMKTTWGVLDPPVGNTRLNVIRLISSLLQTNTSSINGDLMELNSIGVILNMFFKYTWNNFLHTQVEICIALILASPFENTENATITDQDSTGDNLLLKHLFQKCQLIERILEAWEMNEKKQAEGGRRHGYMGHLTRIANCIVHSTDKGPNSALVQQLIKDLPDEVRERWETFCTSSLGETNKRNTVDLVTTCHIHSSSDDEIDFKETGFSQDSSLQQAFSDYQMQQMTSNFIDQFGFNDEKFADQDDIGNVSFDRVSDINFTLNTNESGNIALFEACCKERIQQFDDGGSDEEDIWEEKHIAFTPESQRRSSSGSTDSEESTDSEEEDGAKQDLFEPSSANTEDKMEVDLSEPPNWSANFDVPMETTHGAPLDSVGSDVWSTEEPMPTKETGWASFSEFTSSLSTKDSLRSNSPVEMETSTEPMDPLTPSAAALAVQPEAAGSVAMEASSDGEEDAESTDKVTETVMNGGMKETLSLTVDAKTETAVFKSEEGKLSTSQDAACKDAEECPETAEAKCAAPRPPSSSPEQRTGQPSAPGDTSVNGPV

Legend:
Test in all cases: log2 fold change, soluble protein after heating vs DMSO (PISA); higher = thermal stabilisation; K562 cells, 10 uM, 30 min; active = over 0.2 and 3.5 SD of the protein, either way, in both replicates (recomputed)
[1] = compound: CC1=C(C=C(C=C1)NC(=O)C2=CC(=CC=C2)C(C)(C)C#N)NC3=CC4=C(C=C3)N=CN(C4=O)C
Outline: (§1)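 Soluble protein was defined as the supernatant after 21,000xg for 90 min. It came from K562 cells at 2×10^6 cells/mL given 10 μM compound for 30 min, heated in aliquots for 3 min across 48°C-58°C, pooled, and extracted in PBS with 0.5% NP-40 at 4°C, and was quantified by TMTpro 16plex LC-MS/MS with equalised channel sums. Thermal stability against control samples, from duplicates, is reported as log2 fold change.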

[2] = compound: CC1=C(C=C(C=C1)NC(=O)C2=CC(=CC=C2)N(C)C)NC(=O)C3=CC=C(C=C3)O
Outline: as §1

[3] = compound: CC1=CC=C(C=C1)SC2=C3C=C(SC3=CN=C2)C(=O)N
Outline: as §1

[4] = compound: CC1=NC(=CC=C1)C2=C(N=C(N2)C(C)(C)C)C3=CC4=NC=CN=C4C=C3
Outline: as §1

[5] = compound: CCCCN(Cc1ccc(C(=O)NO)cc1)C(=O)Nc1ccccc1 [Nexturastat A]
Outline: as §1

[6] = compound: CCCS(=O)(=O)Nc1ccc(F)c(C(=O)c2c[nH]c3ncc(-c4ccc(Cl)cc4)cc23)c1F [vemurafenib]
Outline: as §1

[7] = compound: CCCS(=O)(=O)Nc1ccc(F)c(C(=O)c2c[nH]c3ncc(Cl)cc23)c1F
Outline: as §1

[8] = compound: CCCc1cc(C)[nH]c(=O)c1CNC(=O)c1cc(-c2ccnc(N3CCN(C)CC3)c2)cc2c1cnn2C(C)C
Outline: as §1

[9] = compound: CCN(CC)Cc1ccc2cc(COC(=O)Nc3ccc(C(=O)NO)cc3)ccc2c1 [givinostat]
Outline: as §1

[10] = compound: CCN(CCCOc1ccc2c(Nc3cc(CC(=O)Nc4cccc(F)c4)[nH]n3)ncnc2c1)CCOP(=O)(O)O [barasertib]
Outline: as §1

[11] = compound: CC[C@@H]1C(=O)N(C)c2cnc(Nc3ccc(C(=O)NC4CCN(C)CC4)cc3OC)nc2N1C1CCCC1
Outline: as §1

[12] = compound: CC[C@@H]1C(=O)N(C)c2cnc(Nc3ccc(C(=O)N[C@H]4CC[C@H](N5CCN(CC6CC6)CC5)CC4)cc3OC)nc2N1C(C)C [volasertib]
Outline: as §1

[13] = compound: CC[C@H](C)N1C=C(C2=C(C=C(C=C21)C3=CN=C(C=C3)N4CCNCC4)C(=O)NCC5=C(C=C(NC5=O)C)C)C
Outline: as §1

[14] = compound: CC[C@H](C)[C@@H](C(=O)N[C@@H]([C@@H](C)O)C(=O)N[C@@H](CC(C)C)C(=O)[C@]1(CO1)C)NC(=O)[C@H]([C@@H](C)CC)N(C)C(=O)C [epoxomicin]
Outline: as §1

[15] = compound: CCn1c(C(=O)N(C2CC2)C2CC2)cc2c3c(ncn3C)c(Nc3cc(C)n(C)n3)nc21
Outline: as §1

[16] = compound: CCn1cc(-c2ccnc3[nH]c(-c4cccc(CN(C)C)c4)cc23)c(-c2ccc(NC(=O)N(C)C)cc2)n1
Outline: as §1

[17] = compound: CN(C)CC(=O)Nc1ccc2[nH]c(=O)c3ccccc3c2c1
Outline: as §1

[18] = compound: CN(CCOC1=CC=C(C=C1)C[C@H]2C(=O)NC(=O)S2)C3=CC=CC=N3 (racemic) [rosiglitazone]
Outline: as §1

[19] = compound: CN1C2=C(C3=C1C(=O)N(N=C3)CC4=CC(=CC=C4)N)SC(=C2)S(=O)C
Outline: as §1

[20] = compound: CN1CCC(CNc2ccc3ncc(-c4cccc(OC(F)(F)F)c4)n3n2)CC1
Outline: as §1

Measured: log2 fold change

PRPS1 (UniProt P60891)
inactive: [1] 0.009 | [2] -0.01 | [3] -0.003 | [4] -0.014 | [5] 0 | [6] -0.017 | [7] 0.022 | [8] -0.054 | [9] -0.015 | [10] -0.071 | [11] 0.045 | [12] 0.035 | [13] -0.04 | [14] 0.006 | [15] 0.014 | [16] 0.018 | [17] -0.063 | [18] 0.006 | [19] -0.009 | [20] -0.001

PREPL (UniProt Q4J6C6)
inactive: [1] 0.013 | [2] 0 | [3] 0.027 | [4] -0.013 | [5] 0.031 | [6] -0.018 | [7] 0.04 | [8] -0.077 | [9] 0.031 | [10] 0.017 | [11] -0.036 | [12] -0.07 | [13] 0.028 | [14] 0.053 | [15] -0.033 | [16] -0.068 | [17] -0.028 | [18] 0.005 | [19] -0.057 | [20] -0.146

PPP1R7 (UniProt Q15435)
inactive: [1] 0.003 | [2] 0.014 | [3] 0.04 | [4] 0.035 | [5] -0.076 | [6] -0.051 | [7] 0.034 | [8] -0.021 | [9] -0.017 | [10] 0.053 | [11] 0.012 | [12] 0.025 | [13] -0.067 | [14] -0.021 | [15] 0.015 | [16] -0.112 | [17] -0.049 | [18] 0.058 | [19] -0.08 | [20] -0.037

PPP2R1A (UniProt P30153)
inactive: [1] 0.011 | [2] 0.018 | [3] 0.014 | [4] 0.035 | [5] -0.104 | [6] 0.031 | [7] -0.009 | [8] -0.038 | [9] -0.037 | [10] 0.025 | [11] -0.049 | [12] -0.025 | [13] 0.022 | [14] 0.056 | [15] 0.01 | [16] -0.042 | [17] 0.009 | [18] 0.021 | [19] -0.089 | [20] -0.037

PPP3R1 (UniProt P63098)
inactive: [1] -0.084 | [2] -0.017 | [3] 0.02 | [4] 0.049 | [5] -0.033 | [6] 0.033 | [7] 0.016 | [8] 0.032 | [9] 0.029 | [10] -0.013 | [11] -0.007 | [12] -0.024 | [13] 0.035 | [14] 0.065 | [15] 0 | [16] 0.028 | [17] 0.014 | [18] 0.006 | [19] -0.041 | [20] -0.159

PRDX5 (UniProt P30044)
inactive: [1] -0.013 | [2] 0.005 | [3] 0.009 | [4] -0.011 | [5] -0.026 | [6] -0.032 | [7] -0.023 | [8] -0.046 | [9] -0.027 | [10] -0.002 | [11] 0.029 | [12] 0.064 | [13] -0.025 | [14] -0.02 | [15] 0.038 | [16] 0.047 | [17] -0.016 | [18] 0 | [19] -0.004 | [20] -0.058

PRPSAP1 isoform 2 (UniProt Q14558)
inactive: [1] 0.026 | [2] 0.007 | [3] -0.039 | [4] 0.01 | [5] 0.021 | [6] -0.048 | [7] -0.008 | [8] 0.041 | [9] -0.016 | [10] 0.009 | [11] 0.046 | [12] 0.087 | [13] -0.014 | [14] -0.002 | [15] 0.009 | [16] 0.005 | [17] -0.054 | [18] -0.049 | [19] 0.019 | [20] -0.004

Quoted from the results shown (four entries):
PPP2R1A (UniProt P30153)
inactive: [1] 0.011 | [2] 0.018 | [3] 0.014 | [4] 0.035 | [5] -0.104 | [6] 0.031 | [7] -0.009 | [8] -0.038 | [9] -0.037 | [10] 0.025 | [11] -0.049 | [12] -0.025 | [13] 0.022 | [14] 0.056 | [15] 0.01 | [16] -0.042 | [17] 0.009 | [18] 0.021 | [19] -0.089 | [20] -0.037

PPP3R1 (UniProt P63098)
inactive: [1] -0.084 | [2] -0.017 | [3] 0.02 | [4] 0.049 | [5] -0.033 | [6] 0.033 | [7] 0.016 | [8] 0.032 | [9] 0.029 | [10] -0.013 | [11] -0.007 | [12] -0.024 | [13] 0.035 | [14] 0.065 | [15] 0 | [16] 0.028 | [17] 0.014 | [18] 0.006 | [19] -0.041 | [20] -0.159

PRDX5 (UniProt P30044)
inactive: [1] -0.013 | [2] 0.005 | [3] 0.009 | [4] -0.011 | [5] -0.026 | [6] -0.032 | [7] -0.023 | [8] -0.046 | [9] -0.027 | [10] -0.002 | [11] 0.029 | [12] 0.064 | [13] -0.025 | [14] -0.02 | [15] 0.038 | [16] 0.047 | [17] -0.016 | [18] 0 | [19] -0.004 | [20] -0.058

PRPSAP1 isoform 2 (UniProt Q14558)
inactive: [1] 0.026 | [2] 0.007 | [3] -0.039 | [4] 0.01 | [5] 0.021 | [6] -0.048 | [7] -0.008 | [8] 0.041 | [9] -0.016 | [10] 0.009 | [11] 0.046 | [12] 0.087 | [13] -0.014 | [14] -0.002 | [15] 0.009 | [16] 0.005 | [17] -0.054 | [18] -0.049 | [19] 0.019 | [20] -0.004

Next part:

PRDX1 (UniProt Q06830)
inactive: [1] -0.003 | [2] -0.003 | [3] -0.005 | [4] 0.025 | [5] -0.054 | [6] 0.011 | [7] -0.012 | [8] -0.023 | [9] -0.025 | [10] 0.014 | [11] -0.011 | [12] 0.099 | [13] -0.009 | [14] 0.003 | [15] 0.021 | [16] -0.021 | [17] 0.014 | [18] 0.03 | [19] -0.046 | [20] -0.052

PRKCSH (UniProt P14314)
inactive: [1] 0.01 | [2] 0.03 | [3] 0.032 | [4] 0.046 | [5] 0.02 | [6] 0.008 | [7] 0.005 | [8] -0.015 | [9] -0.011 | [10] -0.005 | [11] -0.02 | [12] -0.017 | [13] 0.02 | [14] 0.097 | [15] 0.03 | [16] -0.006 | [17] 0.005 | [18] -0.003 | [19] -0.025 | [20] 0.078

PPP4R1 (UniProt Q8TF05)
inactive: [1] -0.003 | [2] -0.024 | [3] -0.002 | [4] 0.037 | [5] -0.05 | [6] 0.024 | [7] 0 | [8] -0.035 | [9] 0.014 | [10] 0.029 | [11] -0.071 | [12] -0.17 | [13] 0.045 | [14] 0.048 | [15] 0.004 | [16] -0.06 | [17] 0.013 | [18] 0.045 | [19] -0.083 | [20] -0.068

PRDX2 (UniProt P32119)
inactive: [1] 0.005 | [2] -0.01 | [3] 0.068 | [4] 0.022 | [5] -0.095 | [6] -0.022 | [7] -0.024 | [8] -0.036 | [9] -0.015 | [10] 0.021 | [11] -0.028 | [12] 0.097 | [13] -0.042 | [14] 0 | [15] 0.029 | [16] -0.009 | [17] -0.007 | [18] 0.018 | [19] -0.075 | [20] -0.076

PPP1R14C (UniProt Q8TAE6)
inactive: [1] -0.078 | [2] 0.167 | [3] -0.084 | [4] 0.108 | [5] 0.145 | [6] -0.057 | [7] -0.328 | [8] -0.046 | [9] -0.009 | [10] -0.017 | [11] -0.028 | [12] 0.401 | [13] -0.025 | [14] -0.173 | [15] -0.01 | [16] 0.076 | [17] 0.258 | [18] 0.044 | [19] -0.328 | [20] -0.047

PRMT9 (UniProt Q6P2P2)
inactive: [1] -0.051 | [2] 0 | [3] 0.028 | [4] -0.004 | [5] -0.19 | [6] 0.007 | [7] 0.059 | [8] -0.033 | [9] 0.001 | [10] 0.203 | [11] -0.158 | [12] -0.207 | [13] 0.04 | [14] 0.07 | [15] -0.03 | [16] 0.001 | [17] 0.013 | [18] 0.064 | [19] -0.045 | [20] -0.041

PPP1CB (UniProt P62140)
inactive: [1] -0.032 | [2] 0.018 | [3] 0.027 | [4] 0.088 | [5] -0.036 | [6] 0.034 | [7] 0.047 | [8] -0.025 | [9] -0.005 | [10] 0.001 | [11] -0.006 | [12] -0.056 | [13] 0.061 | [14] 0.014 | [15] -0.015 | [16] -0.026 | [17] 0.012 | [18] 0.036 | [19] -0.073 | [20] -0.073

PPP1R11 (UniProt O60927)
inactive: [1] -0.044 | [2] 0.036 | [3] -0.108 | [4] -0.001 | [5] -0.01 | [6] -0.109 | [7] -0.026 | [8] 0.013 | [9] -0.106 | [10] 0.009 | [11] 0.019 | [12] 0 | [13] 0.023 | [14] 0.064 | [15] -0.015 | [16] -0.006 | [17] -0.012 | [18] -0.014 | [19] -0.027 | [20] -0.067

PPP6R3 isoform 5 (UniProt Q5H9R7)
inactive: [1] 0.015 | [2] -0.002 | [3] -0.002 | [4] 0.003 | [5] -0.005 | [6] -0.004 | [7] -0.007 | [8] -0.016 | [9] -0.016 | [10] 0.004 | [11] 0.002 | [12] -0.09 | [13] 0.001 | [14] 0.022 | [15] 0.012 | [16] 0.006 | [17] 0.008 | [18] -0.007 | [19] -0.05 | [20] -0.039
